Laboratory results as given in PMC7070731, “Cytotoxic Activity of Organotin(IV) Derivatives with Triazolopyrimidine Containing Exocyclic Oxygen Atoms” (Molecules, 2020).

Legend:
[1] = test system: intestinal normal-like differentiated Caco-2 cells; experiment: MTT viability assay, normal-like differentiated Caco-2 cells; format: cell-based, human; conditions: for Selectivity index towards the tumor cells (SI): summary statement over both normal cell types versus HCT-116; for SI (selectivity index): LC50 of normal differentiated Caco2 cells divided by IC50 of HCT-116 tumor cells
Protocol: (§1) HTC116 (human colorectal carcinoma), HepG2 (human hepatocellular carcinoma), MCF-7 (human breast cancer), 16-HBE (human bronchial epithelium) and Caco-2 (human colorectal carcinoma) cell lines were purchased from American Type Culture Collection, Rockville, MD, USA. All cell lines were grown in RPMI medium supplemented with L-glutamine (2 mM), 10% fetal bovine serum (FBS), penicillin (100 U/mL), streptomycin (100 µg/mL) and gentamicin (5 μg/mL). Cells were maintained in log phase by seeding twice a week at a density of 3 × 10^8 cells/L in humidified 5% CO2 atmosphere, at 37 °C. In all experiments, after plating, cells were allowed to adhere overnight and then treated with the compounds or vehicle alone (control cells), whereas Caco-2 cells were treated 15 days after confluence, at which time the cells are differentiated in normal intestinal-like cells. No differences were found between cells treated with DMSO 0.1% and untreated cells in terms of cell number and viability.
(§2) Cytotoxic activity of the organotin compounds against human tumor cell lines (HCT-116, HepG2 and MCF-7) and human normal cells (16-HBE and intestinal-like differentiated Caco2 cells) was determined using the MTT colorimetric assay based on the reduction of 3-(4,5-dimethyl-2-thiazolyl)bromide-2,5-diphenyl-2H-tetrazolium (MTT) to purple formazan using mitochondrial dehydrogenases of living cells, as reported. This method is commonly used to illustrate inhibition of cellular proliferation. […] Cisplatin was used for comparison. Briefly, all cell lines were seeded at 1.0 × 10^4 cells/well in 96-well plates containing 200 μL RPMI. When appropriated, cells were washed with fresh medium and incubated with the compounds in RPMI. After incubation, cells were washed, and 50 μL FBS-free medium containing 5 mg/mL MTT was added. The medium was discarded after a 2 h incubation at 37 °C by centrifugation, and formazan blue formed in the cells was dissolved in DMSO. The absorbance, measured at 570 nm in a microplate reader (Bio-RAD, Hercules, CA, USA) of MTT formazan of control cells was taken as 100% of viability. The growth inhibition activity of compounds was estimated by comparison with the not-treated control. The values for the inhibitory concentration for 50% of the tested compounds (IC50) were calculated using a sigmoidal model using GraphPad Prism 5.02 from GraphPad Software (San Diego, CA, USA). Each experiment was repeated three times in triplicate to obtain the mean values.
Formazan of control cells was taken as 100% viability and the 50% lethal concentrations of the synthesized complexes (LC50) were determined by plotting the graph of cell viability versus the concentrations. The selectivity index (SI) values were calculated for each compound by dividing the LC50 of normal differentiated Caco2 or 16-HBE cells by the IC50 of HCT-116 tumor cells. Each experiment was repeated three times in triplicate.

[2] = test system: human bronchial epithelial cells (16-HBE); experiment: MTT viability assay, 16-HBE cells; format: cell-based; conditions: LC50 of 16-HBE cells divided by IC50 of HCT-116 tumor cells
Protocol: as §1, §2
Formazan of control cells was taken as 100% viability and the 50% lethal concentrations of the synthesized complexes (LC50) were determined by plotting the graph of cell viability versus the concentrations. […]

Row | Molecule | Selectivity index towards the tumor cells (SI) [1] | SI (selectivity index) [2] | SI (selectivity index) [1]
1 | CCC[CH2][Sn]([CH2]CCC)([CH2]CCC)[O]c1ccn2ncnc2n1 [Compound 2, n-Bu3Sn(5tpO)] | > 90 | 240 | –
2 | CCC[CH2][Sn]([CH2]CCC)([CH2]CCC)[O]c1cc(C)nc2ncnn12 [Compound 4, n-Bu3Sn(mtpO)] | > 90 | 323 | –
3 | Ph3Sn(HtpO2) [Compound 6] | > 90 | >1000 | >1000
4 | n-Bu3Sn(HtpO2) [Compound 5] | > 90 | 217 | 116
